PMC12721332
These are yes or no findings as the source states them, for the method shown. In cells and extracts the contact can be indirect. For some of these results: A result given as binding can be weak or reduced; the word gives no strength.

Legend:
Test in all cases: co-IP; Flag-CDK11 wild type or T-loop mutants precipitated on Flag agarose M2 from HCT116 lysate (300 mM KCl lysis buffer), washed with high-salt buffer (500 mM KCl); immunoblot
[1] = molecular target: flag-tagged wild-type CDK11 (human)
[2] = molecular target: flag-tagged CDK11 T595D (human)
[3] = molecular target: flag-tagged CDK11 T595E (human)
[4] = molecular target: flag-tagged CDK11 T595A (human)

binding [1]: binds
binding [2]: no binding
binding [3]: no binding
binding [4]: no binding
B1: CCNL1 (protein, UniProt Q9UK58 1-526)
chain: MASGPHSTATAAAAASSAAPSAGGSSSGTTTTTTTTTGGILIGDRLYSEVSLTIDHSLIPEERLSPTPSMQDGLDLPSETDLRILGCELIQAAGILLRLPQVAMATGQVLFHRFFYSKSFVKHSFEIVAMACINLASKIEEAPRRIRDVINVFHHLRQLRGKRTPSPLILDQNYINTKNQVIKAERRVLKELGFCVHVKHPHKIIVMYLQVLECERNQTLVQTAWNYMNDSLRTNVFVRFQPETIACACIYLAARALQIPLPTRPHWFLLFGTTEEEIQEICIETLRLYTRKKPNYELLEKEVEKRKVALQEAKLKAKGLNPDGTPALSTLGGFSPASKPSSPREVKAEEKSPISINVKTVKKEPEDRQQASKSPYNGVRKDSKRSRNSRSASRSRSRTRSRSRSHTPRRHYNNRRSRSGTYSSRSRSRSRSHSESPRRHHNHGSPHLKAKHTRDDLKSSNRHGHKRKKSRSRSQSKSRDHSDAAKKHRHERGHHRDRRERSRSFERSHKSKHHGGSRSGHGRHRR
